{"source": "patent US20100226888A1", "about": "“Ethanol Enhances the Complete Replication of Hepatitis C Virus: the Role of Acetaldehyde” (priority 2009, published 2010)", "key": {"[1]": {"system": "Con1 subgenomic HCV replicon (genotype 1b)", "test": "Con1 subgenomic replicon HCV RNA in SgPC2 cells (Northern blot)", "type": "cell-based, hepatitis C virus", "details": "24 h", "excerpt": "The genotype 2a HCV constructs, pJFH1 (produces infectious virus particles), replicative-null pJFH1-GND, and subgenomic pSgJFH1-Luc (contains a luciferase reporter gene), are described elsewhere (23, 24). Subgenomic HCV replicons are bicistronic constructs that express only the nonstructural proteins of HCV under the control of encephalocarditis virus IRES; neomycin resistance or firefly luciferase gene is under the control of the HCV IRES (15, 22, 24). These replicons support HCV RNA replication but no virus is formed in cell culture. Huh7 cell clones (SgPC2 cells, Clone B) supporting continuous replication of subgenomic HCV replicon of genotype 1b (Con1 sequence) were also used (17, 22).\nThe in vitro transcription, and transfection of HCV RNA, and Huh7 human hepatoma cell culture were performed as previously described (17). For experiments involving stable clones, cells were cultured in medium supplemented with 0.4-0.5 mg/mL G418, and G418 was removed from cell culture medium one day prior to cell treatments, which were performed as described in Results. […]\nIntracellular RNA extraction and northern blots were carried out, as described (16, 17). […] Images were quantified by densitometry, using Optiquant Cyclone 4.00 (Perkin Elmer), and data were normalized by glyceraldehyde 3-phosphate dehydrogenase (GAPDH) mRNA content."}, "[2]": {"system": "HCV", "details": "references 53, 54; cited from earlier work"}}, "note": "At least one structure is not confirmed: it was looked up by name or label, or the drawing left a doubt.", "data": [{"smiles": "CC(C)n1c(/C=C/C(O)CC(O)CC(=O)O)c(-c2ccc(F)cc2)c2ccccc21", "note": "(stereo not drawn) [fluvastatin]", "values": [{"measurement": "potentiation of HCV RNA replication by ethanol, acetaldehyde, isopropyl alcohol, acetone, and acetate", "setting": "[1]; SgPC2 cells, 30 min pretreatment with 5 μM lovastatin, 5 μM fluvastatin, 5 μg/ml TOFA or 5 μg/ml cerulenin", "value": "almost completely inhibited"}, {"measurement": "basal level of HCV replication", "setting": "[2]", "value": "suppress"}]}, {"smiles": "CC(=O)C(=O)O", "note": "[pyruvate]", "values": [{"measurement": "increases in HCV replication during ethanol, acetaldehyde, acetate, isopropyl alcohol, and acetone treatments", "setting": "[1]; with 5 mM pyruvate", "value": "completely abrogated"}]}]}
